Data taken from patent US11458433B2, “Absorbent and process for selectively removing hydrogen sulfide” (BASF SE, priority 2017, dated 2022).

Legend:
[1] = Loading and stripping experiment with CO2 (loading capacity, cyclic capacity); assay type: physicochemical; details: 30% by weight amine in water; for CO2 loading capacity after loading: 40° C., ambient pressure, 8 L (STP)/h CO2, about 4 h; for cyclic CO2 capacity: difference of loading after loading and after stripping; for CO2 loading capacity after stripping: stripped at 80° C. with N2 8 L (STP)/h, 60 min
[2] = Loading and stripping experiment with H2S (loading capacity, cyclic capacity); assay type: physicochemical; details: 30% by weight amine in water; for H2S loading capacity after loading: 40° C., ambient pressure, 8 L (STP)/h H2S, about 4 h; for cyclic H2S capacity: difference of loading after loading and after stripping; for H2S loading capacity after stripping: stripped at 80° C. with N2 8 L (STP)/h, 60 min

| SMILES | CO2 loading capacity after loading [1] [molCO2/molamine] | cyclic CO2 capacity [1] [molCO2/molamine] | CO2 loading capacity after stripping [1] [molCO2/molamine] | H2S loading capacity after loading [2] [molH2S/molamine] | cyclic H2S capacity [2] [molH2S/molamine] | H2S loading capacity after stripping [2] [molH2S/molamine] |
| --- | --- | --- | --- | --- | --- | --- |
| CC(C)(C)NCCOCCO [TBAEE, 2-(2-tert-butylaminoethoxy)ethanol] | 0.97 | 0.73 | 0.24 | 0.92 | 0.67 | 0.25 |
| CC(C)(C)NCCN1CCCC1=O [TBAEPY, 1-[2-(tert-butylamino)ethyl]pyrrolidin-2-one] | 1.02 | 0.89 | 0.13 | 0.85 | 0.61 | 0.24 |
